Assay [1] concerns the target E1A-binding protein, 300 kDa (p300), wild type (mouse (endogenous in P19)) (UniProt B2RWS6). The assay is described as follows: affinity purification with mass spectrometry; P19 cells, the sentence does not tell whether wild type or edited; CBP or p300 immunoprecipitates from nuclear protein, beads suspended in 5% sodium deoxycholate, trypsin digest, LC-MS, 2DICAL.
The target in assay [2] is cAMP response element binding protein (CREB)-binding protein (CBP) (mouse (endogenous in P19)) (UniProt P45481). Described as above.
The target is the same in assay [3]. Description: affinity purification with mass spectrometry; p300-edited P19 cells; CBP or p300 immunoprecipitates from nuclear protein, beads suspended in 5% sodium deoxycholate, trypsin digest, LC-MS, 2DICAL.
Assay [4] has as its target E1A-binding protein, 300 kDa (p300), wild type (mouse (endogenous in P19)) (UniProt B2RWS6). Description: affinity purification with mass spectrometry; wild type (parental) P19 cells; CBP or p300 immunoprecipitates from nuclear protein, beads suspended in 5% sodium deoxycholate, trypsin digest, LC-MS, 2DICAL.
Assay [5] concerns the target cAMP response element binding protein (CREB)-binding protein (CBP) (mouse (endogenous in P19)) (UniProt P45481). The assay is described as above.

The chains behind the UniProt entries cited, without tags or fusion partners. Where a name states a change or a piece, a line headed by the entry shows the natural chain unless it says otherwise.
UniProt B2RWS6: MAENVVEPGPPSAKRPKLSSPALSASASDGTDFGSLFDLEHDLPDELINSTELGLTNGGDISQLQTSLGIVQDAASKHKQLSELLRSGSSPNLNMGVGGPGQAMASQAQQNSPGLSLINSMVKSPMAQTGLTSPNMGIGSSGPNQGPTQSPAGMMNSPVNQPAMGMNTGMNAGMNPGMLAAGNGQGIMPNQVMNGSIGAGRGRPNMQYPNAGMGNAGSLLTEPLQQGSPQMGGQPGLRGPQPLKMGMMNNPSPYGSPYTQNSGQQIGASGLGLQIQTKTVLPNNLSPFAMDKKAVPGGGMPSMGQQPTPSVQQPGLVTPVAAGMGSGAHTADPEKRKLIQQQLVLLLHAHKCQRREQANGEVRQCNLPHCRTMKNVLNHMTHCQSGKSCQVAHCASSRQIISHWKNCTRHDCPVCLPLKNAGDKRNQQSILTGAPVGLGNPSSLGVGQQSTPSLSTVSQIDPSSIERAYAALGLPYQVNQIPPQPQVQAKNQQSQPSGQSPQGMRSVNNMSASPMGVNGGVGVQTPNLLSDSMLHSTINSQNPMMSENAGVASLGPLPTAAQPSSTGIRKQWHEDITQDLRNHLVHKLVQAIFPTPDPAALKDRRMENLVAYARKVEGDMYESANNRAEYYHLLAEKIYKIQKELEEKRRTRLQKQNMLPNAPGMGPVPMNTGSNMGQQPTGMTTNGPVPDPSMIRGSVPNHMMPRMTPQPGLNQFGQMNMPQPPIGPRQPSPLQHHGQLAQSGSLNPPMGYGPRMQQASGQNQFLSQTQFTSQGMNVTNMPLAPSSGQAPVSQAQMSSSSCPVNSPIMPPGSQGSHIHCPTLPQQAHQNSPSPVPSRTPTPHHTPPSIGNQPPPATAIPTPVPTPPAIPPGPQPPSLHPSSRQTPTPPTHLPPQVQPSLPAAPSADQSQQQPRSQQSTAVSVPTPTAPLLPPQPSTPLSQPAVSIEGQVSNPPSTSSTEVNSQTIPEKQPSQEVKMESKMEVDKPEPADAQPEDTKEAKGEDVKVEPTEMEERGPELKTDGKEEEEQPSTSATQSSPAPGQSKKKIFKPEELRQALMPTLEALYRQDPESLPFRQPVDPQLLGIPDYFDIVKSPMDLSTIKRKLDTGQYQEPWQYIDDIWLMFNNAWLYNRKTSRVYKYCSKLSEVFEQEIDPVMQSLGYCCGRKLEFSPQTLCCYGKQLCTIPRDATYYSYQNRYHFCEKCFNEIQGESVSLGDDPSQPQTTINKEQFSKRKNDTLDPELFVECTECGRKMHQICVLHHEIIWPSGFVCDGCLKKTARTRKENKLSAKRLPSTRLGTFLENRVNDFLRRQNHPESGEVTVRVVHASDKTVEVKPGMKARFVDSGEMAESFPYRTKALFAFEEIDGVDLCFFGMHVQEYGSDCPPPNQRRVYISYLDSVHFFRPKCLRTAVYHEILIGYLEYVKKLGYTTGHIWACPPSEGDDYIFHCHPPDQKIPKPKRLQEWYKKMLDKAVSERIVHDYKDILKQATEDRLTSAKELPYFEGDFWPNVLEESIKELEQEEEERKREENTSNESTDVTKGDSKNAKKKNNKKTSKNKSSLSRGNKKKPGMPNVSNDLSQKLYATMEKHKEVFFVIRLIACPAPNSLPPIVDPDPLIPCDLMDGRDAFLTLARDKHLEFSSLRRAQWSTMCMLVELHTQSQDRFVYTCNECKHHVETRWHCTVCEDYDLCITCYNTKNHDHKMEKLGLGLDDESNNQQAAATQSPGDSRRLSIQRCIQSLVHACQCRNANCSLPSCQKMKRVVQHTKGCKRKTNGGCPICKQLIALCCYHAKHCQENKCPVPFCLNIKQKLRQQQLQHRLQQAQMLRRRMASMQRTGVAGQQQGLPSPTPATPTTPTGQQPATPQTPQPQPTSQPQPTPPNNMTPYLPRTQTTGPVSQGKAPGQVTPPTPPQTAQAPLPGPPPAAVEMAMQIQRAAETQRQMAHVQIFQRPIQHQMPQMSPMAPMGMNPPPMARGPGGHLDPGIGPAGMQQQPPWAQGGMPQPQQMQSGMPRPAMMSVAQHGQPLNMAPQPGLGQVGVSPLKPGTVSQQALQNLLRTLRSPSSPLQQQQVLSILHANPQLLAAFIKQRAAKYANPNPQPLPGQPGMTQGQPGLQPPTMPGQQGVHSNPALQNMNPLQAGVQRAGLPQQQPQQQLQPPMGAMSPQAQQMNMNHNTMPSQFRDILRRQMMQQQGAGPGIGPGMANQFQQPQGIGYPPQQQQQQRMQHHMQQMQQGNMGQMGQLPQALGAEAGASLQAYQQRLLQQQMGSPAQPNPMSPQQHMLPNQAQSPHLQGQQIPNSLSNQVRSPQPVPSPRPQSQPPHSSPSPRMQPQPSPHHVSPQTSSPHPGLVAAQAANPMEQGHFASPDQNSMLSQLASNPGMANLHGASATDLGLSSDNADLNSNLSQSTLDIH
UniProt P45481: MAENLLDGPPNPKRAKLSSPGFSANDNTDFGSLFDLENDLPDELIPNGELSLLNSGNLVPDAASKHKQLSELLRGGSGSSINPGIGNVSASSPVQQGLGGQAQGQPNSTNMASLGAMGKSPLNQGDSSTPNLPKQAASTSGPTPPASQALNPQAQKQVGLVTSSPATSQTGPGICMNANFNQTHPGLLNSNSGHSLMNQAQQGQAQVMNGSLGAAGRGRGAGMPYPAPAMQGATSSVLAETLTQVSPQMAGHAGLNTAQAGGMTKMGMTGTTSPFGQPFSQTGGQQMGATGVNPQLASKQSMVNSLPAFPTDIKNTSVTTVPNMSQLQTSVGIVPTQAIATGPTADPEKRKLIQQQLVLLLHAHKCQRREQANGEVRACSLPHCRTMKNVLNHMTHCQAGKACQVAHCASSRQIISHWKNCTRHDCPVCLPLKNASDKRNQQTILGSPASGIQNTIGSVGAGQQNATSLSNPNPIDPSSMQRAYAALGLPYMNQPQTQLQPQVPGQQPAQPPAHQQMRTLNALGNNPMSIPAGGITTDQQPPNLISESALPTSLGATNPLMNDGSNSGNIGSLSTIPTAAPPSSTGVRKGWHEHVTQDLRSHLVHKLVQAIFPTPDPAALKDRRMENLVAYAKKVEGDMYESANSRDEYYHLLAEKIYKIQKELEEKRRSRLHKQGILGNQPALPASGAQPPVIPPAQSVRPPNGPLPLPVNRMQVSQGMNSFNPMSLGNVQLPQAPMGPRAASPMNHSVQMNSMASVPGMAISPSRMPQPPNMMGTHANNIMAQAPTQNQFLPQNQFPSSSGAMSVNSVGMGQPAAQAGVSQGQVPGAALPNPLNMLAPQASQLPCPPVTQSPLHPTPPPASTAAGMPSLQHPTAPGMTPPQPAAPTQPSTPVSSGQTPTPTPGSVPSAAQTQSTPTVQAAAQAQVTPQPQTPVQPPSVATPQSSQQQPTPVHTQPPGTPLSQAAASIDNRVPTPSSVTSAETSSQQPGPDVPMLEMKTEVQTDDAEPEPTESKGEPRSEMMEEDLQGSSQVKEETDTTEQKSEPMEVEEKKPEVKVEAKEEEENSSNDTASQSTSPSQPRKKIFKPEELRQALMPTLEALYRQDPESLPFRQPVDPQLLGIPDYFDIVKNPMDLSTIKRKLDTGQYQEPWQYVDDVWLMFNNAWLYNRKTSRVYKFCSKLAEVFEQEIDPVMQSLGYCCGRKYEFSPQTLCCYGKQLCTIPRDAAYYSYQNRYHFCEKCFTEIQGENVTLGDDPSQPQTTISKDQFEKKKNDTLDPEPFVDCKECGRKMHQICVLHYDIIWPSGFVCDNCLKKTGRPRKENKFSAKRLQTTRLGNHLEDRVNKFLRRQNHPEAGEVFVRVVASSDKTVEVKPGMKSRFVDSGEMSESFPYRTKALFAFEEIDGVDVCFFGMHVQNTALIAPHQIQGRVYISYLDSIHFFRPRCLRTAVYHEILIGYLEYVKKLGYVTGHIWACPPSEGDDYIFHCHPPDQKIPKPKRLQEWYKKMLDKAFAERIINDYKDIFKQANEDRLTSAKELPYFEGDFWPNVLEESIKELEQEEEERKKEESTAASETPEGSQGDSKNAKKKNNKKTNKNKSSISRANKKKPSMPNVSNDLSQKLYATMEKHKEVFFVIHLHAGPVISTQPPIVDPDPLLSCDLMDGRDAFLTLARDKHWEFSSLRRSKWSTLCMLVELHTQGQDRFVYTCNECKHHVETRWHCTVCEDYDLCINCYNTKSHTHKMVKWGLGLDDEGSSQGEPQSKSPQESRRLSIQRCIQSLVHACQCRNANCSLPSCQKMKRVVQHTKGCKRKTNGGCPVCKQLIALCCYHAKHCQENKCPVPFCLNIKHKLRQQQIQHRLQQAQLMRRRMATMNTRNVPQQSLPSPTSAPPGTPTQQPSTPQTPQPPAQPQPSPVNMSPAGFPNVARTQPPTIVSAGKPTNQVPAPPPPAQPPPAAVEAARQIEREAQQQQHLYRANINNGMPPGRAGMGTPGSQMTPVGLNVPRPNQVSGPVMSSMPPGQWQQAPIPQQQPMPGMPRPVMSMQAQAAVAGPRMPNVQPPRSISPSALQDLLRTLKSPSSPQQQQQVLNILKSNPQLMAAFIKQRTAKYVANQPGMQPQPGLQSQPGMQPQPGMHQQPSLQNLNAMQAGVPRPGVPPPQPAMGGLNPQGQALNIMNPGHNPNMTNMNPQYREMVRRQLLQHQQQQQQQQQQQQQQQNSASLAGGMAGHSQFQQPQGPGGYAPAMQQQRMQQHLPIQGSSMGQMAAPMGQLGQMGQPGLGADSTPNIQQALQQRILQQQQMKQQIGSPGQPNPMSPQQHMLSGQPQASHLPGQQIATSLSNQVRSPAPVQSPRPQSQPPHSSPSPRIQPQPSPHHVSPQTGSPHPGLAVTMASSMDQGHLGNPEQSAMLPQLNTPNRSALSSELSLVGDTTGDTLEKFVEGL
UniProt Q61466: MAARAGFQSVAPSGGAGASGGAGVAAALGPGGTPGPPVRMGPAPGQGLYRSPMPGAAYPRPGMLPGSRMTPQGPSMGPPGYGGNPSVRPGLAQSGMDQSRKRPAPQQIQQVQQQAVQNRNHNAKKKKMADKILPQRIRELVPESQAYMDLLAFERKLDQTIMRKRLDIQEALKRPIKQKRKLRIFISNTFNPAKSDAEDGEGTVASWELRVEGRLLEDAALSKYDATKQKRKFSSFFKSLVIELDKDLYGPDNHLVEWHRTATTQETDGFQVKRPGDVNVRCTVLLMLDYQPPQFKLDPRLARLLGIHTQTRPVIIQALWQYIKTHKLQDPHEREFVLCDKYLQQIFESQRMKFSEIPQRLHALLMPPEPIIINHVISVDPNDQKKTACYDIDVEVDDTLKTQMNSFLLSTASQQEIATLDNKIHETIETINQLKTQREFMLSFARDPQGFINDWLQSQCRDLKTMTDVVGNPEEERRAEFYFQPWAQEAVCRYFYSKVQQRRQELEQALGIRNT
UniProt O54941: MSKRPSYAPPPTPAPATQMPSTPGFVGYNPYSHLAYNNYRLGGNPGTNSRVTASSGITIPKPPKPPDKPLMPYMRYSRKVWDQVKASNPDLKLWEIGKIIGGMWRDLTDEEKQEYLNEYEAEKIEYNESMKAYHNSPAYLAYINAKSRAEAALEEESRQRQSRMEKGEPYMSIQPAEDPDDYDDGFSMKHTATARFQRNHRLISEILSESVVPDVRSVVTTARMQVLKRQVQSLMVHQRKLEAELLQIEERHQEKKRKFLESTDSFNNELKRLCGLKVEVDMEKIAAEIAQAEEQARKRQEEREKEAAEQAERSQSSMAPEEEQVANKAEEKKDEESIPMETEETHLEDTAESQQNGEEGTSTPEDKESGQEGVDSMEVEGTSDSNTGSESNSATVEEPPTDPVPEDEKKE
UniProt O88569: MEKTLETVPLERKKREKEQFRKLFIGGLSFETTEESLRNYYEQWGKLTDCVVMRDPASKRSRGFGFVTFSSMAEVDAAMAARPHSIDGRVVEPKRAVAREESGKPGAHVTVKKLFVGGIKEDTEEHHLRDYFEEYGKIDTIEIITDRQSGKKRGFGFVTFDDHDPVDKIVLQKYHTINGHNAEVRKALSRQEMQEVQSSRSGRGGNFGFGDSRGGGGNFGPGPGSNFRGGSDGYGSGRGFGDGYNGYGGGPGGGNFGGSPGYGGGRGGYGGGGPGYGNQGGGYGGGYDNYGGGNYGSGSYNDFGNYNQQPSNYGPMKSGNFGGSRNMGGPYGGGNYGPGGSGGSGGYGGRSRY

No constants are given. Whether binding was seen depends on the method and setting. In cells and extracts the contact can be indirect. Here binding means that the protein was enriched with, or labelled near, the bait; the list need not be complete. For some assays here: A no says only that the protein was not detected with the bait.

As to “ARID1A/BAF250a (from UniProt A2BH40 1-2283)”, the binding entry in assay [1] and in assay [2] was “binds” throughout.

As for “ARID2/BAF200 (from UniProt E9Q7E2 1-1828)”, the binding result in assay [1] and in assay [2] was “binds” in each case.

Consider “SMARCA4/Brg1 (from UniProt Q3TKT4 1-1613)”, for which the binding entry in assay [1] and in assay [2] was “binds” throughout.

In the case of “SMARCC1/BAF155 (from UniProt P97496 1-1104)”, the binding entry in assay [1] and in assay [2] was “binds” each time.

Regarding “SMARCD1 (BAF60A) (from UniProt Q61466 1-515)”, the binding result is reported as “no binding (only in p300-edited P19 cells)” in assay [3], “binds” in assay [4] and “binds” in assay [5].

“SMARCE1 (BAF57) (from UniProt O54941 1-411)”: in assay [4], the binding result is given as “binds”.

For the molecule “heterogeneous nuclear ribonucleoprotein A2/B1 (ROA2) (from UniProt O88569 1-353)”, the binding result in assay [3] was “binds”; in assay [4], “binds”; in assay [5], “no binding (only in parental (wild type) P19 cells)”.

B1: Brd7 (protein, UniProt O88665 1-651)
chain: MGKKHKKHKSDRHFYEEYVEKPLKLVLKVGGSEVTELSTGSSGHDSSLFEDRSDHDKHKDRKRKKRKKGEKQAPGEEKGRKRRRVKEDKKKRDRDRAENEVDRDLQCHVPIRLDLPPEKPLTSSLAKQEEVEQTPLQEALNQLMRQLQRKDPSAFFSFPVTDFIAPGYSMIIKHPMDFSTMKEKIKNNDYQSIEELKDNFKLMCTNAMIYNKPETIYYKAAKKLLHSGMKILSQERIQSLKQSIDFMSDLQKTRKQKERTDACQSGEDSGCWQREREDSGDAETQAFRSPAKDNKRKDKDVLEDKWRSSNSEREHEQIERVVQESGGKLTRRLANSQCEFERRKPDGTTTLGLLHPVDPIVGEPGYCPVRLGMTTGRLQSGVNTLQGFKEDKRNRVTPVLYLNYGPYSSYAPHYDSTFANISKDDSDLIYSTYGEDSDLPNNFSISEFLATCQDYPYVMADSLLDVLTKGGHSRSLQDLDMSSPEDEGQTRALDTAKEAEITQIEPTGRLESSSQDRLTALQAVTTFGAPAEVFDSEEAEVFQRKLDETTRLLRELQEAQNERLSTRPPPNMICLLGPSYREMYLAEQVTNNLKELTQQVTPGDVVSIHGVRKAMGISVPSPIVGNSFVDLTGECEEPKETSTAECGPDAS
B1: the binding entry in assay [1] and in assay [2] was “binds” in each case.

These data come from article PMC6051640.
